Measured values reported in the supplement of paper PMC10849652.
Some of the results follow.

By UniProt entry, the sequences of proteins in these tests, tags left out. Where a name states a change or a piece, a line headed by the entry shows the natural chain unless it says otherwise.
UniProt Q9NUP1: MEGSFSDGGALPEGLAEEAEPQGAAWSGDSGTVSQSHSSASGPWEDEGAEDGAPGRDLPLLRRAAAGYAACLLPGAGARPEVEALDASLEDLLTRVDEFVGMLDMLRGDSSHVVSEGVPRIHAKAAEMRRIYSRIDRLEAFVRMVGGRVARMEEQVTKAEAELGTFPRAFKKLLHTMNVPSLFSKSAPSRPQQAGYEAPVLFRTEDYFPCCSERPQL
UniProt P55957: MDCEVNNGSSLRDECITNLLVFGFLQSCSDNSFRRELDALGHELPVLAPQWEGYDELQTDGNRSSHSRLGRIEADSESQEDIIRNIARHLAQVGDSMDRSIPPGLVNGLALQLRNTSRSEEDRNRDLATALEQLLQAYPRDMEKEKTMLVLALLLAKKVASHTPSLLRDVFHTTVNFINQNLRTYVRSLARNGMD
UniProt P12694: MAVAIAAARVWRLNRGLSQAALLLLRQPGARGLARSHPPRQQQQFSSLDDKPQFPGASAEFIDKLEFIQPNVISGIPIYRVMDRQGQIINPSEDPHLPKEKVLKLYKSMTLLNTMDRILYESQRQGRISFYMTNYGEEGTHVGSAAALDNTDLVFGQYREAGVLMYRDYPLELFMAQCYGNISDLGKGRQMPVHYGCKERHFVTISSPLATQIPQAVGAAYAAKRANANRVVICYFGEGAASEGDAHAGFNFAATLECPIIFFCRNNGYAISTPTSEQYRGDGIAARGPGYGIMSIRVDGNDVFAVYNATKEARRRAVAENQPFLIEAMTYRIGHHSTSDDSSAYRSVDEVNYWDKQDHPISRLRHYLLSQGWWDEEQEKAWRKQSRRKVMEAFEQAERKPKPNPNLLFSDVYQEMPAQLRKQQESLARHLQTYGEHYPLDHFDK
UniProt P51572: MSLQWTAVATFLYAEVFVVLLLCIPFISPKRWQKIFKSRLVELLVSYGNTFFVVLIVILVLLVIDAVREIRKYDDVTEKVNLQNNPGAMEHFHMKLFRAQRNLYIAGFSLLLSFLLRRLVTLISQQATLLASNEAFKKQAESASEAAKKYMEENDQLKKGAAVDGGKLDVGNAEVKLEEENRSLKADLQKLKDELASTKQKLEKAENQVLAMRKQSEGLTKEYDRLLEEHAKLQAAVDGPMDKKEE
UniProt P35613: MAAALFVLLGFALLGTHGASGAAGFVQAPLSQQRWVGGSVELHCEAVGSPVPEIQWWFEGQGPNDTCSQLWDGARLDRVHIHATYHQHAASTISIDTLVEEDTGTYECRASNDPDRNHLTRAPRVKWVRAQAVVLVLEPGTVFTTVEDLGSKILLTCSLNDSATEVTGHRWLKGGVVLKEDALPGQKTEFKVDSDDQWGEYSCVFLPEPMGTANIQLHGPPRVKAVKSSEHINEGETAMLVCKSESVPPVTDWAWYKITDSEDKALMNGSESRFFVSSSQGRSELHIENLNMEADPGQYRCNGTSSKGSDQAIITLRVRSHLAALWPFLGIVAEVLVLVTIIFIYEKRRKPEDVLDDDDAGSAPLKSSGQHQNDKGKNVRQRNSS
UniProt Q14692: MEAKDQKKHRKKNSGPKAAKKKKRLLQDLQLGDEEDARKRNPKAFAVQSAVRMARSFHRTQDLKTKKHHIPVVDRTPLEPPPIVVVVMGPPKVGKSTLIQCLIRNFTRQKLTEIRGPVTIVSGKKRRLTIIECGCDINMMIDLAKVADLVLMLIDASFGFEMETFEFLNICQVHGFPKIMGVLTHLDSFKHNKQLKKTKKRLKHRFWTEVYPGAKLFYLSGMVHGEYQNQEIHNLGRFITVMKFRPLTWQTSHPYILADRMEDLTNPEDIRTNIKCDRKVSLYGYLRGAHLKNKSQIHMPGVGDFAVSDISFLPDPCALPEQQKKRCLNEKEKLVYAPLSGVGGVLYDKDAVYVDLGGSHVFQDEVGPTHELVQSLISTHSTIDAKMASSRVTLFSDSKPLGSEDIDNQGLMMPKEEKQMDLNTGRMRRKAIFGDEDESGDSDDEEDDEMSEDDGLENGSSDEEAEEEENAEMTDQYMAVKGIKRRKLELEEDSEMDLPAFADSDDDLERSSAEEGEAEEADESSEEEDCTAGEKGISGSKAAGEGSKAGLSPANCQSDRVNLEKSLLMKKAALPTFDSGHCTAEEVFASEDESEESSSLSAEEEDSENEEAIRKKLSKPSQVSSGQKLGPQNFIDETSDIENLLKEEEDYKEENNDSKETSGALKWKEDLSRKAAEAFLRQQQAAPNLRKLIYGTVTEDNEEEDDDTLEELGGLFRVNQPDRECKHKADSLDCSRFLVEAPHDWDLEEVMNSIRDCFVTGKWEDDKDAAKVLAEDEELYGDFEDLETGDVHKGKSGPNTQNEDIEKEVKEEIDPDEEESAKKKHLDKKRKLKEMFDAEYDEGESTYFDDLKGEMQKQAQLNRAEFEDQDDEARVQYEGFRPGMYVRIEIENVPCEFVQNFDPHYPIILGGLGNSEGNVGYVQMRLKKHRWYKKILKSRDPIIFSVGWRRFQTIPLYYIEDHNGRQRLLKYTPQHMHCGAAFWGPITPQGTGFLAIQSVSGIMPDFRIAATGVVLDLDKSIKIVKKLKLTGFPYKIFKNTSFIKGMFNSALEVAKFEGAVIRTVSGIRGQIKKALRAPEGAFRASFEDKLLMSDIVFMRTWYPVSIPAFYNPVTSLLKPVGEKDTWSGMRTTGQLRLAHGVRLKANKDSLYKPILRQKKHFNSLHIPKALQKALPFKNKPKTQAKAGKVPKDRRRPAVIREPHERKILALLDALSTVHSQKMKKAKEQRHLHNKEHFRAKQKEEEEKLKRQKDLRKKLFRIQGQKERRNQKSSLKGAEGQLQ
UniProt O14867: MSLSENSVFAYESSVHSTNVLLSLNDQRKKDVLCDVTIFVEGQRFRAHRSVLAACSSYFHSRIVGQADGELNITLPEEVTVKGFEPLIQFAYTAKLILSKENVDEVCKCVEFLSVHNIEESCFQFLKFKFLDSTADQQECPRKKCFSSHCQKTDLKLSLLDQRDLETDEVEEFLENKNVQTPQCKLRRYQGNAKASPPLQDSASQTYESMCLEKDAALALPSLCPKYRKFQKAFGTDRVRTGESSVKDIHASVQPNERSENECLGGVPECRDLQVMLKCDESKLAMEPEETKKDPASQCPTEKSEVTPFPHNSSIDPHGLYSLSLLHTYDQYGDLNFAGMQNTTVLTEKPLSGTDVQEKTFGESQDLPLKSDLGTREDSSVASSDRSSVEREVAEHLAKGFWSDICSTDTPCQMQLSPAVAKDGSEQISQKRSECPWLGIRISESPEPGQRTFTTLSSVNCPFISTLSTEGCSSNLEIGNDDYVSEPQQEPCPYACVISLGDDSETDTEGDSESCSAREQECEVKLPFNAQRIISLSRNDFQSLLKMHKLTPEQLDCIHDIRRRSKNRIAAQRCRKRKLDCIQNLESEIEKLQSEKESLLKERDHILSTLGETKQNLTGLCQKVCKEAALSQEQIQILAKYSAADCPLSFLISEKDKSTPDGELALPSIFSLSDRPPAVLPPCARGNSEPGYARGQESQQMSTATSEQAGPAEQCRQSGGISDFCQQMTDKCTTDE
UniProt P78537: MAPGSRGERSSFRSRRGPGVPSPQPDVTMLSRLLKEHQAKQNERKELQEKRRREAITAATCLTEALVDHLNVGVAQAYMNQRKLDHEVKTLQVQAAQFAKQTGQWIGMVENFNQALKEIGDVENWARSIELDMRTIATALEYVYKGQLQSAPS
UniProt P54687: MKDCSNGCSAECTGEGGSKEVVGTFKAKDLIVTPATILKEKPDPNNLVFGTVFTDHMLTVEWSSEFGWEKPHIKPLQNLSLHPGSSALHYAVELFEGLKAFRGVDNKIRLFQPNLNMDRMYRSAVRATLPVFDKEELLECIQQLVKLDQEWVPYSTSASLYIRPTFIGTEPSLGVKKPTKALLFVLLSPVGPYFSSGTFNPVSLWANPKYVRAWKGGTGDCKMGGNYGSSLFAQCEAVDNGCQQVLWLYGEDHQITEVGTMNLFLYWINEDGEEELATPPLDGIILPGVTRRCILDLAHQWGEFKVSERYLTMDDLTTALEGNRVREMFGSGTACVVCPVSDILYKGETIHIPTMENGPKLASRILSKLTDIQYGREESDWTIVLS
UniProt P54132: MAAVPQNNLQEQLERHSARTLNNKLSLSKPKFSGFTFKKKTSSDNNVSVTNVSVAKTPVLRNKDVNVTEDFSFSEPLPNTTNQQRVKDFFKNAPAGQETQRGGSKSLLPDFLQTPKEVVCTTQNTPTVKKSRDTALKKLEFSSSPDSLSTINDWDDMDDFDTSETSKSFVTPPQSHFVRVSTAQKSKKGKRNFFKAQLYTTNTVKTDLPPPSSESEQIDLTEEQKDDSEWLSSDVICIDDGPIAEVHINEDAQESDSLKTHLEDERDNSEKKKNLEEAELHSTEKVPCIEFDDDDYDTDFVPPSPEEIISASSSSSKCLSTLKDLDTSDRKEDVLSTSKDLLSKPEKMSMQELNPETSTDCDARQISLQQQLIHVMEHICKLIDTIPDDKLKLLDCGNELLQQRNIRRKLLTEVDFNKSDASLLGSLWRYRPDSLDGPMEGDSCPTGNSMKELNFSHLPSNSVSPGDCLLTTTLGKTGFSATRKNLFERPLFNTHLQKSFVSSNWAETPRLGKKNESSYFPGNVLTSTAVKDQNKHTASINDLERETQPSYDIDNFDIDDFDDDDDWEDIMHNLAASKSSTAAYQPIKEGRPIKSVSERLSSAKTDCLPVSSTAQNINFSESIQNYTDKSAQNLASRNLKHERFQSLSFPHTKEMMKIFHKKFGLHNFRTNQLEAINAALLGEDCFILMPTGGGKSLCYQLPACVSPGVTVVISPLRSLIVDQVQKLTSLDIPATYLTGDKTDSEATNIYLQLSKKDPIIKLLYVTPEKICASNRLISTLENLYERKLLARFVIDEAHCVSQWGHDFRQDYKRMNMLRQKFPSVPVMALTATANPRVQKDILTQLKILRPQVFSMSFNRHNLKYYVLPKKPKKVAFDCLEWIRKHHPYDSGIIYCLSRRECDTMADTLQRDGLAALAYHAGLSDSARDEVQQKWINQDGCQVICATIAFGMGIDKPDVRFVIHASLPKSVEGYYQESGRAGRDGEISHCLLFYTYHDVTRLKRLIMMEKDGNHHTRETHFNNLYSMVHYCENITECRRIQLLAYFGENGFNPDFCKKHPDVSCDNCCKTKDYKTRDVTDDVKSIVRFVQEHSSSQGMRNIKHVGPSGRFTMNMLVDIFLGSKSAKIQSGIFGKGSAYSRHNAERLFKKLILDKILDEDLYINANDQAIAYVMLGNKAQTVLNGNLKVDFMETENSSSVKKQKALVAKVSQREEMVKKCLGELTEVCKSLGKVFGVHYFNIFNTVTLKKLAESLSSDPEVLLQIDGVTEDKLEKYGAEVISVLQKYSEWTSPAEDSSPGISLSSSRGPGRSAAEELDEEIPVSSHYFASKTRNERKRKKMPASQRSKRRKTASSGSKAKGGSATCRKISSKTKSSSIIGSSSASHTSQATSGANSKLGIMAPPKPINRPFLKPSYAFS
UniProt Q9UL15: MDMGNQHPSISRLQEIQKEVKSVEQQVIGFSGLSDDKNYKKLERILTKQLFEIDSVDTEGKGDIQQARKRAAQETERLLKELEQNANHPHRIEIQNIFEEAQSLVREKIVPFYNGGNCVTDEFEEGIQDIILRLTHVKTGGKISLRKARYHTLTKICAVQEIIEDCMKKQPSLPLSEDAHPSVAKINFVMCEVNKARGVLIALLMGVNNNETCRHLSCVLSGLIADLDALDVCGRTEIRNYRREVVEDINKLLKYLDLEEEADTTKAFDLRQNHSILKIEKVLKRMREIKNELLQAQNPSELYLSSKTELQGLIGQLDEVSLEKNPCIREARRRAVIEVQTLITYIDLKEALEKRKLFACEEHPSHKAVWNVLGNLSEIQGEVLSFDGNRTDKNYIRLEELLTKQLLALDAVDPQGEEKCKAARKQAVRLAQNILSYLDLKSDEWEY

Columns and labels:
Assay in all cases: log2 fold change, soluble protein after heating vs DMSO (PISA); higher = thermal stabilisation; K562 lysate, 10 uM; active = over 0.2 and 3.5 SD of the protein, either way, in both replicates (recomputed)
vemurafenib = compound: CCCS(=O)(=O)Nc1ccc(F)c(C(=O)c2c[nH]c3ncc(-c4ccc(Cl)cc4)cc23)c1F [vemurafenib]
Outline: (§1)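 A 30 min treatment with 10 μM compound was applied to crude K562 extract at 1 mg/mL protein in PBS pH 7.4 with 1 mM MgCl2. Heating for 3 min spanned 48°C-58°C, after which aliquots were pooled, adjusted to 0.5% NP-40 at 4°C and spun at 21,000xg for 90 min. TMTpro 16plex LC-MS/MS of the supernatant, with channel sums equalised, gave values recorded as log-two fold change in thermal stability against solvent controls, from duplicates.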

[1] = compound: CCCS(=O)(=O)Nc1ccc(F)c(C(=O)c2c[nH]c3ncc(Cl)cc23)c1F
Outline: as §1

barasertib = compound: CCN(CCCOc1ccc2c(Nc3cc(CC(=O)Nc4cccc(F)c4)[nH]n3)ncnc2c1)CCOP(=O)(O)O [barasertib]
Outline: as §1

[2] = compound: CC[C@@H]1C(=O)N(C)c2cnc(Nc3ccc(C(=O)NC4CCN(C)CC4)cc3OC)nc2N1C1CCCC1
Outline: as §1

volasertib = compound: CC[C@@H]1C(=O)N(C)c2cnc(Nc3ccc(C(=O)N[C@H]4CC[C@H](N5CCN(CC6CC6)CC5)CC4)cc3OC)nc2N1C(C)C [volasertib]
Outline: as §1

[3] = compound: CCn1c(C(=O)N(C2CC2)C2CC2)cc2c3c(ncn3C)c(Nc3cc(C)n(C)n3)nc21
Outline: as §1

[4] = compound: CCn1cc(-c2ccnc3[nH]c(-c4cccc(CN(C)C)c4)cc23)c(-c2ccc(NC(=O)N(C)C)cc2)n1
Outline: as §1

[5] = compound: CN1CCC(CNc2ccc3ncc(-c4cccc(OC(F)(F)F)c4)n3n2)CC1
Outline: as §1

saracatinib = compound: CN1CCN(CCOc2cc(OC3CCOCC3)c3c(Nc4c(Cl)ccc5c4OCO5)ncnc3c2)CC1 [saracatinib]
Outline: as §1

sotrastaurin = compound: CN1CCN(c2nc(C3=C(c4c[nH]c5ccccc45)C(=O)NC3=O)c3ccccc3n2)CC1 [sotrastaurin]
Outline: as §1

alvocidib = compound: CN1CC[C@H](c2c(O)cc(O)c3c(=O)cc(-c4ccccc4Cl)oc23)[C@H](O)C1 [alvocidib]
Outline: as §1

Tubastatin A = compound: CN1CCc2c(c3ccccc3n2Cc2ccc(C(=O)NO)cc2)C1 [Tubastatin A]
Outline: as §1

[6] = compound: CNC(=O)C1=CC=CC=C1NC2=NC(=NC=C2Cl)NC3=C(C=C(C=C3)N4CCOCC4)OC
Outline: as §1

defactinib = compound: CNC(=O)c1ccc(Nc2ncc(C(F)(F)F)c(NCc3nccnc3N(C)S(C)(=O)=O)n2)cc1 [defactinib]
Outline: as §1

[7] = compound: CNc1nc(-c2ccc3c(N)n[nH]c3c2)cc(N2C[C@@H](C(=O)NC3CCCCC3)CC[C@H]2C)n1
Outline: as §1

encorafenib = compound: COC(=O)N[C@@H](C)CNc1nccc(-c2cn(C(C)C)nc2-c2cc(Cl)cc(NS(C)(=O)=O)c2F)n1 [encorafenib]
Outline: as §1

[8] = compound: COC(=O)[C@H](CCSC)NC(=O)C1=C(C=C(C=C1)NC[C@H](CS)N)C2=CC=CC=C2
Outline: as §1

alisertib = compound: COc1cc(Nc2ncc3c(n2)-c2ccc(Cl)cc2C(c2c(F)cccc2OC)=NC3)ccc1C(=O)O [alisertib]
Outline: as §1

[9] = compound: COc1cc2nc(-c3cc(F)ccc3O)nc(N[C@@H]3CNC[C@H]3C(C)(C)O)c2cc1OC
Outline: as §1

gefitinib = compound: COc1cc2ncnc(Nc3ccc(F)c(Cl)c3)c2cc1OCCCN1CCOCC1 [gefitinib]
Outline: as §1

| Target | log2 fold change (vemurafenib) | log2 fold change [1] | log2 fold change (barasertib) | log2 fold change [2] | log2 fold change (volasertib) | log2 fold change [3] | log2 fold change [4] | log2 fold change [5] | log2 fold change (saracatinib) | log2 fold change (sotrastaurin) | log2 fold change (alvocidib) | log2 fold change (Tubastatin A) | log2 fold change [6] | log2 fold change (defactinib) | log2 fold change [7] | log2 fold change (encorafenib) | log2 fold change [8] | log2 fold change (alisertib) | log2 fold change [9] | log2 fold change (gefitinib) |
| --- | --- | --- | --- | --- | --- | --- | --- | --- | --- | --- | --- | --- | --- | --- | --- | --- | --- | --- | --- | --- |
| BLOC1S4 (UniProt Q9NUP1) | inactive: -0.008 | inactive: -0.001 | inactive: 0.044 | inactive: 0.063 | inactive: 0.031 | inactive: -0.01 | inactive: 0.047 | inactive: -0.006 | inactive: 0.035 | inactive: 0.03 | inactive: 0.064 | inactive: 0.022 | inactive: 0.013 | inactive: 0.03 | inactive: 0.043 | inactive: -0.026 | inactive: 0.025 | inactive: -0.011 | inactive: -0.014 | inactive: -0.031 |
| BID isoform 2 (UniProt P55957) | inactive: 0.046 | inactive: 0.014 | inactive: 0.131 | inactive: 0.039 | inactive: 0.019 | inactive: -0.033 | inactive: 0.053 | inactive: 0.018 | inactive: 0.009 | inactive: 0.032 | inactive: -0.012 | inactive: 0.026 | inactive: 0.063 | inactive: 0.004 | inactive: 0.089 | inactive: -0.003 | inactive: -0.043 | inactive: -0.009 | inactive: -0.002 | inactive: -0.041 |
| BCKDHA (UniProt P12694) | inactive: 0.083 | inactive: -0.007 | inactive: 0.046 | inactive: 0.126 | inactive: -0.047 | inactive: 0.008 | inactive: 0.042 | inactive: -0.024 | inactive: 0.02 | inactive: -0.005 | inactive: 0.025 | inactive: -0.059 | inactive: 0.058 | inactive: -0.007 | inactive: 0.144 | inactive: 0.01 | inactive: -0.093 | inactive: -0.013 | inactive: 0.026 | inactive: 0.166 |
| BCAP31 isoform 2 (UniProt P51572) | inactive: -0.003 | inactive: -0.015 | inactive: -0.027 | inactive: 0.057 | inactive: 0.042 | inactive: 0.011 | inactive: -0.038 | inactive: 0.02 | inactive: 0.011 | inactive: -0.012 | inactive: -0.03 | inactive: 0.038 | inactive: 0.018 | inactive: -0.013 | inactive: 0.026 | inactive: -0.017 | inactive: -0.039 | inactive: 0.014 | inactive: 0.022 | inactive: 0.015 |
| BIRC6 (UniProt Q9NR09) | inactive: -0.018 | inactive: 0.019 | inactive: 0.013 | inactive: -0.018 | inactive: -0.015 | inactive: 0.021 | inactive: -0.046 | inactive: 0.002 | inactive: -0.005 | inactive: -0.007 | inactive: 0.002 | inactive: -0.046 | inactive: 0.013 | inactive: 0.011 | inactive: 0.013 | inactive: 0.01 | inactive: -0.03 | inactive: 0.009 | inactive: -0.005 | inactive: -0.025 |
| BSG (UniProt P35613) | inactive: 0.008 | inactive: -0.054 | inactive: -0.016 | inactive: -0.037 | inactive: 0.033 | inactive: 0.039 | inactive: 0.045 | inactive: -0.045 | inactive: -0.002 | inactive: -0.005 | inactive: 0.017 | inactive: 0.022 | inactive: -0.023 | inactive: -0.034 | inactive: -0.018 | inactive: 0.033 | inactive: -0.041 | inactive: 0.018 | inactive: -0.001 | inactive: 0.029 |
| BRD4 (UniProt O60885) | inactive: 0.049 | inactive: 0.016 | inactive: -0.007 | active: 0.538 | active: 0.217 | inactive: -0.008 | inactive: -0.007 | inactive: 0.037 | inactive: -0.025 | inactive: -0.012 | inactive: -0.003 | inactive: -0.001 | inactive: 0.02 | inactive: -0.05 | inactive: 0.036 | inactive: 0 | inactive: 0.03 | inactive: 0.038 | inactive: -0.03 | inactive: 0.034 |
| BMS1 (UniProt Q14692) | inactive: -0.038 | inactive: 0.023 | inactive: 0.127 | inactive: -0.027 | inactive: -0.018 | inactive: 0.012 | inactive: -0.054 | inactive: 0.006 | inactive: -0.004 | inactive: 0.005 | inactive: -0.016 | inactive: -0.024 | inactive: 0.042 | inactive: 0.053 | inactive: 0.007 | inactive: 0.075 | inactive: 0.01 | inactive: 0.035 | inactive: -0.01 | inactive: -0.042 |
| BACH1 (UniProt O14867) | inactive: 0.017 | inactive: 0.034 | inactive: 0.07 | inactive: 0.025 | inactive: -0.014 | inactive: -0.038 | inactive: 0.007 | inactive: 0.008 | inactive: 0.045 | inactive: 0.035 | inactive: -0.012 | inactive: 0.024 | inactive: 0.012 | inactive: -0.005 | inactive: -0.033 | inactive: -0.009 | inactive: -0.006 | inactive: -0.056 | inactive: -0.011 | inactive: 0.015 |
| BCL7C isoform 2 (UniProt Q8WUZ0) | inactive: 0.02 | inactive: -0.012 | inactive: 0.029 | inactive: 0.014 | inactive: 0.012 | inactive: 0.05 | inactive: -0.192 | inactive: 0.079 | inactive: 0.039 | inactive: -0.01 | inactive: -0.011 | inactive: -0.094 | inactive: 0.029 | inactive: -0.081 | inactive: 0.013 | inactive: -0.012 | inactive: 0.031 | inactive: 0.068 | inactive: 0.025 | inactive: -0.008 |
| BTF3 (UniProt P20290) | inactive: -0.02 | inactive: -0.008 | inactive: -0.032 | inactive: 0.018 | inactive: 0.026 | inactive: 0 | inactive: -0.026 | inactive: -0.162 | inactive: 0.023 | inactive: 0.014 | inactive: 0.04 | inactive: 0.036 | inactive: 0.006 | inactive: 0.004 | inactive: -0.038 | inactive: 0.004 | inactive: -0.016 | inactive: 0.025 | inactive: 0.013 | inactive: 0.003 |
| BLOC1S1 (UniProt P78537) | inactive: 0.074 | inactive: 0.003 | inactive: 0.045 | inactive: 0.027 | inactive: 0.008 | inactive: 0.055 | inactive: -0.001 | inactive: -0.003 | inactive: 0.046 | inactive: -0.011 | inactive: 0.032 | inactive: 0.06 | inactive: 0.038 | inactive: 0.04 | inactive: 0.032 | inactive: 0.074 | inactive: -0.094 | inactive: 0.083 | inactive: -0.004 | inactive: 0.006 |
| BCAT1 (UniProt P54687) | inactive: 0.024 | inactive: 0.01 | inactive: -0.038 | inactive: 0.012 | inactive: 0.006 | inactive: 0.002 | inactive: -0.066 | inactive: 0.044 | inactive: 0.004 | inactive: -0.02 | inactive: -0.026 | inactive: 0.041 | inactive: -0.008 | inactive: -0.027 | inactive: 0.054 | inactive: 0.003 | inactive: -0.022 | inactive: 0.026 | inactive: 0.002 | inactive: -0.006 |
| BLM (UniProt P54132) | inactive: 0.007 | inactive: 0.013 | inactive: -0.071 | inactive: -0.063 | inactive: -0.029 | inactive: 0.054 | inactive: 0.247 | inactive: -0.14 | inactive: -0.014 | inactive: -0.01 | inactive: 0.082 | inactive: -0.07 | inactive: 0.071 | inactive: 0.031 | inactive: 0.001 | inactive: 0.043 | inactive: 0.018 | inactive: -0.025 | inactive: -0.006 | inactive: -0.054 |
| BAG5 isoform 2 (UniProt Q9UL15) | inactive: -0.017 | inactive: 0.034 | inactive: 0.051 | inactive: -0.018 | inactive: -0.033 | inactive: -0.033 | inactive: -0.041 | inactive: 0.026 | inactive: -0.05 | inactive: 0.013 | inactive: -0.059 | inactive: -0.045 | inactive: -0.01 | inactive: 0.016 | inactive: -0.032 | inactive: -0.009 | inactive: 0.066 | inactive: -0.071 | inactive: 0.003 | inactive: 0.021 |
| BORCS5 (UniProt Q969J3) | inactive: 0.044 | inactive: 0.005 | active: 0.201 | inactive: 0.057 | inactive: 0.027 | inactive: -0.01 | inactive: 0.075 | inactive: -0.055 | inactive: 0.013 | inactive: 0.017 | inactive: -0.012 | inactive: 0.043 | inactive: -0.001 | inactive: 0.067 | inactive: 0.032 | inactive: 0.074 | inactive: -0.09 | inactive: -0.014 | inactive: 0.01 | inactive: -0.079 |

Single entries from the entries so far.
log2 fold change (alisertib) with BLM (UniProt P54132) is entered as inactive: -0.025
log2 fold change [3] with BID isoform 2 (UniProt P55957) is entered as inactive: -0.033
